From the supplement of paper PMC12067093, “Discovery and optimisation of a covalent ligand for TRIM25 and its application to targeted protein ubiquitination” (Chemical Science, 2025)
Some of the results follow.

Amino acid sequences for entries named in this document (tags omitted). A change or cut given only in a name is not applied to a line headed by its entry.
UniProt Q12874: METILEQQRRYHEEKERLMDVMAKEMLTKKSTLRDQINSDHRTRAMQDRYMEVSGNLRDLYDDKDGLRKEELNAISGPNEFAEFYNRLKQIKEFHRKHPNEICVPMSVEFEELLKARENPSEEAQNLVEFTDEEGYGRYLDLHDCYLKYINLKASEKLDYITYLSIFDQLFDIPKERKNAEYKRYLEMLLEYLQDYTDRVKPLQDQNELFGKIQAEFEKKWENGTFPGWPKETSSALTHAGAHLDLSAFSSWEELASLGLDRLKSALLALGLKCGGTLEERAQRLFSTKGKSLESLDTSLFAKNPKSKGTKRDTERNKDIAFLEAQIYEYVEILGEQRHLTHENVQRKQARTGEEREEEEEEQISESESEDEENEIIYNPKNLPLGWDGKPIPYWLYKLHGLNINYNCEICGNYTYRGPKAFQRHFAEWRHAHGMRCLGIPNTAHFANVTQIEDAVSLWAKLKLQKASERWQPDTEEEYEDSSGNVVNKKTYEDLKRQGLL
UniProt O75533, whole entry, looked up: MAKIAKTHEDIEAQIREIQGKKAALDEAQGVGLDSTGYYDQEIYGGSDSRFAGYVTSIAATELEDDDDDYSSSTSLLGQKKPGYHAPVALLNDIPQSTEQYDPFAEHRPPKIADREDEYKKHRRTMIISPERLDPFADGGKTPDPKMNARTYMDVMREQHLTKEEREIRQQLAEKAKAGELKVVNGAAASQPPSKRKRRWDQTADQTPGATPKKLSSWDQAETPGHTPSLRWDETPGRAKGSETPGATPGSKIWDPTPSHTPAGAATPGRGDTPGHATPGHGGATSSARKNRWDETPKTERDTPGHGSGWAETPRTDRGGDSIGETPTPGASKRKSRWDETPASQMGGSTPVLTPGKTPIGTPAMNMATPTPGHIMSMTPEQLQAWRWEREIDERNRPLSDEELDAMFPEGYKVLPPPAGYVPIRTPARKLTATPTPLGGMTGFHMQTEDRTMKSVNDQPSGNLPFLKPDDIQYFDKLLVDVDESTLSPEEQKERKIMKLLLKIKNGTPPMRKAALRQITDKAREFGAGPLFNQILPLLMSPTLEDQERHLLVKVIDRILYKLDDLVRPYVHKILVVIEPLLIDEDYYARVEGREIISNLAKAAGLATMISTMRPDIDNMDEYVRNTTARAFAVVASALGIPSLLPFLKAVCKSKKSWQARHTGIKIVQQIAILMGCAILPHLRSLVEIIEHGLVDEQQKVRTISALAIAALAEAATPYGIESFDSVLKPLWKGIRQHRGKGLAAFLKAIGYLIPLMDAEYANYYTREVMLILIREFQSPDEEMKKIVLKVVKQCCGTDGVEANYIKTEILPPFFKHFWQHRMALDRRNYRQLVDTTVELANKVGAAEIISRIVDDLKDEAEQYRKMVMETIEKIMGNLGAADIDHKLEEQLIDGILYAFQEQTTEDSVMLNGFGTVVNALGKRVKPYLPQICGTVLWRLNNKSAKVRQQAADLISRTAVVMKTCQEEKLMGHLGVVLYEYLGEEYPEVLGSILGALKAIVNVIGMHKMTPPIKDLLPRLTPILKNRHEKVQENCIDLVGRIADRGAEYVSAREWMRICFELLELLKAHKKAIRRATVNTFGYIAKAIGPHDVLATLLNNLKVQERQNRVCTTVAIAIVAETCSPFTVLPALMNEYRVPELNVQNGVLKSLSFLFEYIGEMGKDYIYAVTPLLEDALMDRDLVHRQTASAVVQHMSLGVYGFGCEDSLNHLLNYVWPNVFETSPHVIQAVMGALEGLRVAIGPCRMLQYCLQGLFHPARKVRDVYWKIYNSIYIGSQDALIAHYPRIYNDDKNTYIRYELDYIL
UniProt Q9UJS0: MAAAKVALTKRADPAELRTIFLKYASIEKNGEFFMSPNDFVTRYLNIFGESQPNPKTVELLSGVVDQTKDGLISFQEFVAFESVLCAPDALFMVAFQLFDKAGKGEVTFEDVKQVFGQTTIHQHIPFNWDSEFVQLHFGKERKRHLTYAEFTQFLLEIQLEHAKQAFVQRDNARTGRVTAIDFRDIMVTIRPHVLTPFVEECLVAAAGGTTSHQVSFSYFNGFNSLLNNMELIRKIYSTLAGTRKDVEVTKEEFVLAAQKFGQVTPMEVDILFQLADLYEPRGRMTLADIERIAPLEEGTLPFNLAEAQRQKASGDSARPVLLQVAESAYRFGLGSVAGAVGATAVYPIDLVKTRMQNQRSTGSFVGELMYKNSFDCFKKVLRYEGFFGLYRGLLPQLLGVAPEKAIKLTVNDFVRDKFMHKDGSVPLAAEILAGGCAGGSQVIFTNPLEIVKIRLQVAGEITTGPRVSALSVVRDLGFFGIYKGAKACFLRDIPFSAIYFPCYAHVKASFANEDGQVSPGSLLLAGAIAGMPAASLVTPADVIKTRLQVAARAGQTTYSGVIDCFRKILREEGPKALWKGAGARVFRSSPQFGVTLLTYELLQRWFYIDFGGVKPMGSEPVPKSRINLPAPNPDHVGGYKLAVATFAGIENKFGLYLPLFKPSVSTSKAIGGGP
UniProt Q8WTS6: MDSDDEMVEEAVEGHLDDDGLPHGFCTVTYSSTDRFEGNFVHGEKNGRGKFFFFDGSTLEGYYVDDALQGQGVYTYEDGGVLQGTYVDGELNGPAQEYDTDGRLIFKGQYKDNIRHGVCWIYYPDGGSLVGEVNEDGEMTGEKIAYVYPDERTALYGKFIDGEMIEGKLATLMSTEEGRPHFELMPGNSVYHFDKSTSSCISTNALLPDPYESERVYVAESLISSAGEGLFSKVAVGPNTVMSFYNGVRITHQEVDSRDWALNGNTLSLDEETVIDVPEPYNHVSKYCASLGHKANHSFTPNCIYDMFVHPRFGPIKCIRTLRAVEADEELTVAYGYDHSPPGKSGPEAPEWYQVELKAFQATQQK
UniProt Q9HAT2: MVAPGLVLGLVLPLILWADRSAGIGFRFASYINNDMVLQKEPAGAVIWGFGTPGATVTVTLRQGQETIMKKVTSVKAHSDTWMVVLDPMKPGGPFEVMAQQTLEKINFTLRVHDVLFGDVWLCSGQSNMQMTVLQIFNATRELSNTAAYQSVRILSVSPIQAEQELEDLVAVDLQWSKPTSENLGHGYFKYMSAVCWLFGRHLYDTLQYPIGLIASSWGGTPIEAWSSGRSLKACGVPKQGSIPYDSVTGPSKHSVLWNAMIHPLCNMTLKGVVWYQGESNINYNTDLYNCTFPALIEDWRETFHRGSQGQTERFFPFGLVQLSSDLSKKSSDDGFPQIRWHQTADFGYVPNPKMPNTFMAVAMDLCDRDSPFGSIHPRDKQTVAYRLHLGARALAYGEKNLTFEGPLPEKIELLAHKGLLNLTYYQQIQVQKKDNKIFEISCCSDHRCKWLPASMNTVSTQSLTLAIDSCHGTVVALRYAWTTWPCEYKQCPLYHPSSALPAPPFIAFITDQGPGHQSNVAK
UniProt Q9UBX3: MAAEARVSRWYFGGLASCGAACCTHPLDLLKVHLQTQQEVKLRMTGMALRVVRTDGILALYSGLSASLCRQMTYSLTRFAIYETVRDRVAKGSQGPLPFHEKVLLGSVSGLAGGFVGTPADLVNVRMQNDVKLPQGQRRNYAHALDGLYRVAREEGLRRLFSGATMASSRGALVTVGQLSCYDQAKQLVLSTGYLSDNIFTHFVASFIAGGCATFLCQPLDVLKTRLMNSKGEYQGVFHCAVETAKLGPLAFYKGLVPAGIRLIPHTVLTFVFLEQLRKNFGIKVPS
UniProt Q15428: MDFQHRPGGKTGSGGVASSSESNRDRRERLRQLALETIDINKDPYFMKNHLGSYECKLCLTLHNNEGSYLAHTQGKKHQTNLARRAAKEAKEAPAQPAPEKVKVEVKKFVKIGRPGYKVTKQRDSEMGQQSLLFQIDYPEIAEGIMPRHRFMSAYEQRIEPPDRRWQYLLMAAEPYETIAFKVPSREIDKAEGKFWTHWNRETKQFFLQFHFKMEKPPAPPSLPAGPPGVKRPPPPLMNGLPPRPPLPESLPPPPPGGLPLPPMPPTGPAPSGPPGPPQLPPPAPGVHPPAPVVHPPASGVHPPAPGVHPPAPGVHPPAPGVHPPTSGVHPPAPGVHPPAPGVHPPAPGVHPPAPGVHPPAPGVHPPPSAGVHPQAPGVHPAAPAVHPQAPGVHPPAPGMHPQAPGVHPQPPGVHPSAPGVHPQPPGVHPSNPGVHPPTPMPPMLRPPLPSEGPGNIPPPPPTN
UniProt Q8IZD6: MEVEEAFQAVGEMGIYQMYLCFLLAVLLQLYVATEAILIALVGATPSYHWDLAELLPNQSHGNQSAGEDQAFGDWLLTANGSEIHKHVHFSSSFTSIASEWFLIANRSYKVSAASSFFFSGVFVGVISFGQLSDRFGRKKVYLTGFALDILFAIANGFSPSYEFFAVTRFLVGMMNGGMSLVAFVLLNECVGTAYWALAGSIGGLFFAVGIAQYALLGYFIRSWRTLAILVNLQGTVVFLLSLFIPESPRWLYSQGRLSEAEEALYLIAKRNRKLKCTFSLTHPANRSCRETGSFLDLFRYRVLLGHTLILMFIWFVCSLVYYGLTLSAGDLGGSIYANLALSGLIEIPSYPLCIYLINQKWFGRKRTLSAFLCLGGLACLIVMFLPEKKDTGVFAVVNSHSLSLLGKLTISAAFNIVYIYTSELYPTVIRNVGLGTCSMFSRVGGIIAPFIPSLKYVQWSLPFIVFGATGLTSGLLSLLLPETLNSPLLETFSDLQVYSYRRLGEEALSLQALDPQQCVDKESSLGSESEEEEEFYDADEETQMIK
UniProt Q9NXA8: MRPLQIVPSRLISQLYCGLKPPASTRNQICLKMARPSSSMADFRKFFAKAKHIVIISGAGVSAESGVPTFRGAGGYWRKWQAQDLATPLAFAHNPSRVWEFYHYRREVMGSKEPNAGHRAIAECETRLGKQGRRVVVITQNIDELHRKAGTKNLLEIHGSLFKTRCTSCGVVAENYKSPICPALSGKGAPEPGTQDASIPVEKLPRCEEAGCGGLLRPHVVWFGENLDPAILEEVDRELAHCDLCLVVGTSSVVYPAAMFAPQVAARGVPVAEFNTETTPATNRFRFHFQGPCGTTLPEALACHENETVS
UniProt O43765: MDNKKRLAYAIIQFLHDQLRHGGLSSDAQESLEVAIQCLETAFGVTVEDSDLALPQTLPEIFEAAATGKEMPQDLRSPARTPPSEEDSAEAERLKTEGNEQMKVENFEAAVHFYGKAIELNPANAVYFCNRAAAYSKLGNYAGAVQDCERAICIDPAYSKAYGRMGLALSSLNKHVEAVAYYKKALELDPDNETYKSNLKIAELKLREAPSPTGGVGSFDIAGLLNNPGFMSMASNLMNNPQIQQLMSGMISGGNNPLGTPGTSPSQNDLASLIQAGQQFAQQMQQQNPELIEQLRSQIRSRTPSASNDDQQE

Compound: Cc1cc(ccc1-c1ccccc1)C(=O)N1CCCN(CC1)C(=O)CCl [compound 10]
Assay: probe-labelled cysteine peptide fold change vs DMSO (competition) (log2 fold change); higher = less target engagement (more negative = stronger competition)
Details: 10 µM; THP-1; incubation time: 4 h
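Note: competitive profiling in live THP-1 cells: cysteine peptides tagged with an iodoacetamide desthiobiotin (IA-DTB) probe, intensity after compound treatment relative to DMSO-treated cells.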

| Target | probe-labelled cysteine peptide fold change |
| --- | --- |
| SF3A3_Q12874_408_LHGLNINYNCEICGNYTYR (UniProt Q12874) | -0.143 |
| SF3A3_Q12874_145_YLDLHDCYLK (UniProt Q12874) | 0.0593 |
| SETDB1_Q15047_582_LFYLPHVCSYTCLSR (UniProt Q15047) | -0.0872 |
| SF3A3_Q12874_437_CLGIPNTAHFANVTQIEDAVSLWAK (UniProt Q12874) | 0.0901 |
| SF3B1_O75533_796_QCCGTDGVEANYIK (UniProt O75533) | -0.0565 |
| SLC25A13_Q9UJS0_503_DIPFSAIYFPCYAHVK (UniProt Q9UJS0) | 0.0164 |
| SETD7_Q8WTS6_303_ANHSFTPNCIYDMFVHPR (UniProt Q8WTS6) | -0.214 |
| SIAE_Q9HAT2_367_MPNTFMAVAMDLCDRDSPFGSIHPR (UniProt Q9HAT2) | -0.0923 |
| SLC25A10_Q9UBX3_181_GALVTVGQLSCYDQAK (UniProt Q9UBX3) | 0.034 |
| SF3A2_Q15428_56_NHLGSYECK (UniProt Q15428) | -0.00759 |
| SETDB1_Q15047_731_GVFINTGPEFLVGCDCK (UniProt Q15047) | -0.198 |
| SLC22A15_Q8IZD6_438_NVGLGTCSMFSR (UniProt Q8IZD6) | 0.0942 |
| SETDB1_Q15047_819_CLDDIAK (UniProt Q15047) | -0.0539 |
| SIRT5_Q9NXA8_293+303_FHFQGPCGTTLPEALACHENETVS (UniProt Q9NXA8) | 0.279 |
| SGTA_O43765_148_LGNYAGAVQDCER (UniProt O43765) | 0.191 |
| SLC25A10_Q9UBX3_240_LMNSKGEYQGVFHCAVETAK (UniProt Q9UBX3) | -0.116 |

Part of the list above, field by field.
SIAE_Q9HAT2_367_MPNTFMAVAMDLCDRDSPFGSIHPR (UniProt Q9HAT2)
  probe-labelled cysteine peptide fold change: -0.0923
SLC25A10_Q9UBX3_181_GALVTVGQLSCYDQAK (UniProt Q9UBX3)
  probe-labelled cysteine peptide fold change: 0.034
